{"source": "PubChem BioAssay AID1259425, University of Nebraska Medical Center | 2018", "test": "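Seek colon cancer weak points whose silencing resembles KSR1 loss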 (primary screen)", "system": "HCT116 human colon cancer cells", "reagent": "siRNA pool against human genes, 50 nM siRNA", "measurement": "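mRNA of six signature genes measured together by branched-DNA assay after 50 nM siRNA pool, blank removed, divided by geometric mean of two housekeeping genes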", "direction": "BNIP3L mRNA: higher = more BNIP3L transcript after knockdown", "note": "Here is an unselected part of about 14,000 reagents. Further read-outs or replicates are left out here. The record does not give: the time to read-out."}
The opening 2 records, ahead of the listing:
{"target gene": "FEM1C (fem-1 homolog C)", "PubChem SID": "SID364001530", "BNIP3L mRNA, set 1": 0.164}
{"target gene": "PIK3R5 (phosphoinositide-3-kinase regulatory subunit 5)", "PubChem SID": "SID363998738", "BNIP3L mRNA, set 1": 0.168}

Main list, repeating the preview:
{"target gene": "FEM1C (fem-1 homolog C)", "PubChem SID": "SID364001530", "BNIP3L mRNA, set 1": 0.164}
{"target gene": "PIK3R5 (phosphoinositide-3-kinase regulatory subunit 5)", "PubChem SID": "SID363998738", "BNIP3L mRNA, set 1": 0.168}
{"target gene": "IFI16 (interferon gamma inducible protein 16)", "PubChem SID": "SID363996431", "BNIP3L mRNA, set 1": 0.207}
{"target gene": "NAB2 (NGFI-A binding protein 2)", "PubChem SID": "SID363996827", "BNIP3L mRNA, set 1": 0.109}
{"target gene": "SOCS3 (suppressor of cytokine signaling 3)", "PubChem SID": "SID363995010", "BNIP3L mRNA, set 1": 0.0892}
{"target gene": "DYDC2 (DPY30 domain containing 2)", "PubChem SID": "SID364003952", "BNIP3L mRNA, set 1": 0.1}
{"target gene": "ZCCHC4 (zinc finger CCHC-type containing 4)", "PubChem SID": "SID364005569", "BNIP3L mRNA, set 1": 0.548}
{"target gene": "SLC17A5", "PubChem SID": "SID363998316", "BNIP3L mRNA, set 1": 0.0539}
{"target gene": "FXN (frataxin)", "PubChem SID": "SID363991480", "BNIP3L mRNA, set 1": 0.122}
{"target gene": "MMP2 (matrix metallopeptidase 2)", "PubChem SID": "SID363995504", "BNIP3L mRNA, set 1": 0.112}
{"target gene": "PRDX5 (peroxiredoxin 5)", "PubChem SID": "SID363998043", "BNIP3L mRNA, set 1": 0.196}
{"target gene": "STAC (SH3 and cysteine rich domain)", "PubChem SID": "SID363994288", "BNIP3L mRNA, set 1": 0.157}
